Measured values as given in US20160000750A1, “COMBINATION OF EGCG OR METHYLATED EGCG AND A PDE INHIBITOR” (KYUSHU UNIVERSITY, NATIONAL UNIVERSITY CORPORATION, priority 2010, published 2016).
At least one compound was matched to its structure with a doubt left.

Key:
[1] = tested on: human multiple myeloma cell line, U266; assay: Involvement of 67LR (anti-67LR antibody MLuc5) in cell-killing and cytostatic activity, U266; type: cell-based; conditions: U266, 96-well; vardenafil 5 μM, EGCG 5 μM; 96 hours; without anti-67LR antibody (isotype control mouse IgM)
Protocol: A trypan blue staining solution was prepared by suspending trypan blue in PBS at a concentration of 1% and was used in investigation of the anti-cancer activity of a combination of EGCG and vardenafil by trypan blue assay. The PBS used was prepared by dissolving 8.0 g of NaCl, 0.2 g of KCl, 1.15 g of Na2HPO4, and 0.2 g of KH2PO4 in 1 L of ultrapure water, followed by autoclave sterilization.
A human multiple myeloma cell line, U266, and a human acute myeloid leukemia cell line, HL60, adjusted to be 5×10^4 cells/mL (U266) and 1×10^4 cells/mL (HL60), respectively, in an RPMI 1640 medium supplemented with 1% FCS were seeded in a 96-well plate (Falcon Co., Ltd.). Vardenafil was added thereto at a final concentration of 5 μM. Immediately after the addition, an anti-67LR monoclonal antibody, MLuc5 (Abcam PLC), was added thereto at a final concentration of 20 μg/mL. In the group of adding an isotype control antibody, mouse IgM (Cosmo Bio Co., Ltd., Tokyo) was added at a final concentration of 20 μg/mL. […]
The plate was returned to the incubator immediately after the addition of EGCG, followed by culturing for 96 hours. […] After 10 minutes, the number of the cells was counted with a hemocytometer. Unstained cells were deemed as viable cells, and the cell viability was determined as a ratio of the number of unstained cells in trypan blue staining to the total number of cells. […]

[2] = tested on: human multiple myeloma cell line, U266; assay: Apoptosis induction by Annexin V PI double staining, U266; type: cell-based; conditions: vardenafil 5 μM, EGCG 5 μM, 96 hours
Protocol: A propidium iodide (PI) staining solution was prepared by suspending PI (Sigma Corporation) in PBS at a concentration of 50 μg/mL and was used in investigation of the anti-cancer activity of a combination of EGCG and vardenafil by Annexin V PI double staining. The PBS used was prepared by dissolving 8.0 g of NaCl, 0.2 g of KCl, 1.15 g of Na2HPO4, and 0.2 g of KH2PO4 in 1 L of ultrapure water, followed by autoclave sterilization. The Annexin V Binding Buffer used was prepared with 10 mM HEPES, 140 mM NaCl, and 2.5 mM CaCl2 (Wako Pure Chemical Industries, Ltd.) to be pH 7.4, followed by filter sterilization.
Cell lines, U266 and HL60, adjusted to be 5×10^4 cells/mL (U266) and 1×10^4 cells/mL (HL60), respectively, in an RPMI 1640 medium supplemented with 1% FCS were seeded in a 96-well plate. […]
The plate was returned to the incubator immediately after the addition of EGCG, followed by culturing for 96 hours. […] The supernatant was removed, and the cells were suspended in an Annexin V Binding uffer, and the number of the cells was counted with a hemocytometer. […] Subsequently, 400 μL of an Annexin V Binding Buffer was added thereto from above, and the cells were counted with a flow cytometer, FACS Caliber (Becton, Dickinson and Company). After compensation, the Annexin V Alexa Fluor 488 Conjugate was measured at FL 1, and the cells deemed to be positive were determined as apoptotic cells. […]

CCCc1nc(C)c2c(=O)[nH]c(-c3cc(S(=O)(=O)N4CCN(CC)CC4)ccc3OCC)nn12 [vardenafil]
cell viability (cell-killing activity) [1]: any cytotoxicity was not observed
apoptosis-inducing activity (apoptotic cell ratio) [2]: any cytotoxicity was not observed
